Laboratory results as given in PubChem BioAssay AID493014 (National Center for Advancing Translational Sciences (NCATS), 2011).
Some of the results follow. Shown are side measurements of this screen, not its main read-out; they come without a call. Most of these compounds were active or inconclusive in the main read-out, so they are no random draw. Words in brackets tell the shape of the fitted curve; partial curves, single points and poor fits give uncertain potencies.

Assay: qHTS Assay to Find Inhibitors of Chronic Active B-Cell Receptor Signaling
Conditions: ABC-DLBCL IkBa-CBG/CBR reporter, luminescence ratio (green luciferase fused to IkBa over red control in TMD8 lymphoma cells), 4 h
Outline: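 Compounds up to 46 uM were incubated four hours with TMD8 cells whose green CBG68 luciferase is fused to IkappaBalpha; red CBR luminescence normalised the signal, and concentration-effect curves were fitted to fusion, red and ratio data.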

[1] = measured here: CBR red luminescence, cell number
[2] = measured here: IkBa-CBG green luminescence

Question: For `CCOCCCNC(=S)N1CCC(NC(=O)C2CCCCC2)CC1`, which AC50 [1] is on record?
Answer: 0.562 µM [rising, full curve, poor fit]

Question: For `CCOC(=O)N1CC=C2C(C#N)=C(N)C(C#N)(C#N)[C@H](c3cccs3)[C@H]2C1`, which AC50 [1] is on record?
Answer: 2.31 µM [falling, full curve, poor fit]

Question: For `NC(=S)N/N=C/C=C/c1ccccc1`, which AC50 [2] is on record?
Answer: 23.1 µM [falling, single point]

Question: Which AC50 [1] does the source give for `CSCCC(NC(=O)c1ccc(Cl)cc1Cl)C(=O)OC1CCCCC1=O` (stereo not drawn) here?
Answer: 1.64 µM [rising, partial curve, poor fit]

Question: With `CCn1cc(/C=N\NC(=O)c2ccccc2Cl)cn1` as the molecule, how does the AC50 [1] read?
Answer: 13 µM [falling, partial curve]

Question: For `CCCCn1c(=O)[nH]c(=O)c2c1nc(Cn1ncc(Cl)c(Cl)c1=O)n2CCC`, which AC50 [1] is on record?
Answer: 12.6 µM [falling, partial curve]

Question: What about the AC50 [2] of the same molecule?
Answer: 35.5 µM [rising, partial curve, poor fit]

Question: For `C=CCNc1nc(-c2ccc([N+](=O)[O-])cc2)cs1`, which AC50 [1] is on record?
Answer: 0.517 µM [rising, partial curve]

Question: For `c1ccc(-c2ccccc2OCCCN2CCCCCC2)cc1`, which AC50 [1] is on record?
Answer: 12.6 µM [falling, single point]

Question: With `Cc1ccc(-n2[nH]c(C)c(/C=N/NC(=O)c3ccc(O)cc3O)c2=O)cc1` as the molecule, how does the AC50 [1] read?
Answer: 0.316 µM [falling, full curve, poor fit]

Question: With `CCC(=O)Oc1ccc(C(=O)Nc2cccc(NC(=O)c3ccco3)c2)cc1` as the molecule, how does the AC50 [1] read?
Answer: 1.26 µM [falling, full curve]

Question: With `CC1(C)O[C@@H]2C[C@H]3[C@@H]4CCC5=CC(=O)CC[C@]5(C)[C@@]4(F)[C@@H](O)C[C@]3(C)[C@]2(C(=O)CCl)O1` as the molecule, how does the AC50 [1] read?
Answer: 0.517 µM [rising, full curve, poor fit]

Question: For `COc1cccc(CC(NC(C)=O)C(=O)NC2CCN(C(=O)NCc3ccccc3)CC2)c1` (stereo not drawn), which AC50 [1] is on record?
Answer: 25.1 µM [falling, partial curve, poor fit]

Question: Which AC50 [1] does the source give for `CCCc1cc(=O)[nH]c2nnc(SCC(=O)N3CC(C)OC(C)C3)n12` (stereo not drawn) here?
Answer: 1.84 µM [rising, full curve, poor fit]

Question: With `CCN1CCN(C(=O)C2CCC(CNS(=O)(=O)c3ccccc3)CC2)CC1` (stereo not drawn) as the molecule, how does the AC50 [1] read?
Answer: 4.61 µM [falling, single point]

Question: Which AC50 [1] does the source give for `COc1ccccc1-c1sc2ccccc2c1-c1ccc2c(c1)OCCO2` here?
Answer: 18.4 µM [rising, partial curve]

Question: Which AC50 [1] does the source give for `CC(/C=N/NC(=O)c1sc(N)nc1C)=C\c1ccccc1` here?
Answer: 0.501 µM [falling, full curve]

Question: For `COc1ccc(N2CCN(C3CCCCC3NS(=O)(=O)c3ccc(Cl)cc3)CC2)cc1` (stereo not drawn), which AC50 [1] is on record?
Answer: 3.98 µM [rising, partial curve]
